Measured values published in the supplement of paper PMC4635364.
Counter-ions that a name gives are not always drawn. The list shows a part of the results. This data set is noisy: repeats of one test often differ as much as different tests do.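 ReNCell VM, a human fetal ventral-midbrain neural progenitor line, was differentiated without mitogens. Blinded raters scored images stained for doublecortin (early neurons) or tyrosine hydroxylase (dopaminergic neurons) against untreated wells (0 = no change). Scores were averaged across repeats and both raters, and compounds averaging 2 or more were selected as hits for retesting.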

Each compound was assayed on ReNCell VM (assay: dopaminergic neuron differentiation score (TH+ cell fraction vs untreated, manual image score) (score (0 to 3)); higher = more TH+ dopaminergic neuron differentiation). Details: library: Tocriscreen; 2 uM; 4 weeks; BDNF 10 ng/ml + GDNF 10 ng/ml.

Dopaminergic neuron differentiation score, inactive:
O=[N+]([O-])c1cc2nc(O)c(O)nc2cc1[N+](=O)[O-] 0
CCOC(=O)[C@]12CC1/C(=N\O)c1ccccc1O2 (stereo partly specified) 0
CC(C)(Sc1ccc(CCN(CCCCC2CCCCC2)C(=O)NC2CCCCC2)cc1)C(=O)O 0
COc1cc2c(cc1OC)-c1c/c(=N\c3c(C)cc(C)cc3C)n(C)c(=O)n1CC2 [Trequinsin hydrochloride] 0
COc1ccccc1OCCNCC(O)COc1cccc2[nH]c3ccccc3c12 (stereo unspecified) [Carvedilol] 0
O=C(/C=C/c1ccc(O)c(O)c1)OCCc1ccccc1 [Caffeic acid phenethyl ester] 0
Cc1ccc2c(c1)c1c3n2CCNC3CCC1 (stereo unspecified) [Pirlindole mesylate] 0
O=C1CCC(N2C(=O)c3ccccc3C2=O)C(=O)N1 (stereo unspecified) [Thalidomide] 0
Cc1ccc(O)c(N=Nc2ccccc2)n1 0
CC#CCOC(=O)c1c(C)nc2sc3c(c2c1N)CCC(O)C3 (stereo unspecified) 0
CCC(=O)O[C@]1(C(=O)SCF)[C@H](C)C[C@H]2[C@@H]3C[C@H](F)C4=CC(=O)C=C[C@]4(C)[C@@]3(F)[C@@H](O)C[C@@]21C [Fluticasone propionate] 0
Nc1nc(N)nc(-c2cc(Cl)ccc2Cl)n1 [Irsogladine maleate] 0
NCCc1c[nH]cn1 [Histamine dihydrochloride] 0
C[N+](C)(C)CCCCCNCC12CC3CC(CC(C3)C1)C2 0
Brc1c(NC2=NCCN2)ccc2nccnc12 0
CCC1=C(C)CN(C(=O)NCCc2ccc(S(=O)(=O)NC(=O)N[C@H]3CC[C@H](C)CC3)cc2)C1=O [Glimepiride] 0

Copied from the entries so far for reference:
Dopaminergic neuron differentiation score, inactive:
CCOC(=O)[C@]12CC1/C(=N\O)c1ccccc1O2 (stereo partly specified) 0
CC(C)(Sc1ccc(CCN(CCCCC2CCCCC2)C(=O)NC2CCCCC2)cc1)C(=O)O 0
